Measurements as given in the supplement of paper PMC12067093, “Discovery and optimisation of a covalent ligand for TRIM25 and its application to targeted protein ubiquitination” (Chemical Science, 2025).
The list shows a part of the results.

By UniProt entry, the sequences of proteins in these tests, tags left out. Where a name states a change or a piece, a line headed by the entry shows the natural chain unless it says otherwise.
UniProt Q96B26, whole entry, looked up: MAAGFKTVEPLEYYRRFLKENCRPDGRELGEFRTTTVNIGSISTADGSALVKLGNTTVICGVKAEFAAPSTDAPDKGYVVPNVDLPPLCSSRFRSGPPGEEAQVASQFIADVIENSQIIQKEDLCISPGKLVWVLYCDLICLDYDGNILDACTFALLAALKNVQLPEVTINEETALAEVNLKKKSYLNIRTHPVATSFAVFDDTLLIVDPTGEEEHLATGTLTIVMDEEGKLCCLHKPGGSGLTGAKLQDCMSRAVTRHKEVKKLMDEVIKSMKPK
UniProt Q96EK7: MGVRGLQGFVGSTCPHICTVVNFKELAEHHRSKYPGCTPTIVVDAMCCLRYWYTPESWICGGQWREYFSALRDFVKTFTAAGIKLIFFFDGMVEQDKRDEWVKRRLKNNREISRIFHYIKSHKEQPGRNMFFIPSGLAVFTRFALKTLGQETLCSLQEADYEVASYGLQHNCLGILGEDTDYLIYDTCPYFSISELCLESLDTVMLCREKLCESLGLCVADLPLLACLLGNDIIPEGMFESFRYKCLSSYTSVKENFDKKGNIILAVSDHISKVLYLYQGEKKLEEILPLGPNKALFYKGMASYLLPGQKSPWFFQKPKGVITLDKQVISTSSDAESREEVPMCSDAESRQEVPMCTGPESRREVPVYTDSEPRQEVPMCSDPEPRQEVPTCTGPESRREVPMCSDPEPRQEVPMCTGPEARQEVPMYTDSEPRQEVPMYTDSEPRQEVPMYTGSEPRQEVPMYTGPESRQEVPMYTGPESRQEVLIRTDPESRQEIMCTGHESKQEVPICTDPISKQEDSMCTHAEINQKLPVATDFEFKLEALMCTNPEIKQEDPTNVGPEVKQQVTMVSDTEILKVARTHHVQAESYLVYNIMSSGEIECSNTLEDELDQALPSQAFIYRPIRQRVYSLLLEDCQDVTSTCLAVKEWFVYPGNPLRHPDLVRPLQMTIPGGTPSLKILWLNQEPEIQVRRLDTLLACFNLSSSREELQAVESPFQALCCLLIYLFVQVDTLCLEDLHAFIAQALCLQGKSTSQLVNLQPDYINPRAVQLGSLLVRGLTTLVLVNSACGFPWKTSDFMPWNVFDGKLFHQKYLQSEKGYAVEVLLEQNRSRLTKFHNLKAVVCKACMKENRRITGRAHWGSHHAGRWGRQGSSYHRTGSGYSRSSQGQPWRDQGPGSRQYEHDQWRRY
UniProt Q96E09: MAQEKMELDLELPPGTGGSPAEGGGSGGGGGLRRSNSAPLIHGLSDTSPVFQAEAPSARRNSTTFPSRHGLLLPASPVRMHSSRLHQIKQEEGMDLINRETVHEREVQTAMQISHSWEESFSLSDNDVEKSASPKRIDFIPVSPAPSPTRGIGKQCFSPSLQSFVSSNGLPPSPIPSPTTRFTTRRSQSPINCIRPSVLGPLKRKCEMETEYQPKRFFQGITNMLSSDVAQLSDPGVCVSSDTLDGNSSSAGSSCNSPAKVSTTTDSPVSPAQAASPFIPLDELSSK
UniProt Q5T8I3: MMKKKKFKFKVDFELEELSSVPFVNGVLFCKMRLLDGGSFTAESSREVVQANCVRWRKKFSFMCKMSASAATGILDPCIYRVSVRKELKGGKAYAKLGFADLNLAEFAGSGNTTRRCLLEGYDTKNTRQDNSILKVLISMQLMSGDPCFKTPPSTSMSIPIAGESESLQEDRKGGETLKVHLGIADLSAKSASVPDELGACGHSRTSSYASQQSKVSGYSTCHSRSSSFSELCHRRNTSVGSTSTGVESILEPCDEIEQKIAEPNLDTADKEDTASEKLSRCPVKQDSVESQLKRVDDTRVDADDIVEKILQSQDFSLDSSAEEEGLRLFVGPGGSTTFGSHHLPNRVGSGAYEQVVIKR
UniProt P14921: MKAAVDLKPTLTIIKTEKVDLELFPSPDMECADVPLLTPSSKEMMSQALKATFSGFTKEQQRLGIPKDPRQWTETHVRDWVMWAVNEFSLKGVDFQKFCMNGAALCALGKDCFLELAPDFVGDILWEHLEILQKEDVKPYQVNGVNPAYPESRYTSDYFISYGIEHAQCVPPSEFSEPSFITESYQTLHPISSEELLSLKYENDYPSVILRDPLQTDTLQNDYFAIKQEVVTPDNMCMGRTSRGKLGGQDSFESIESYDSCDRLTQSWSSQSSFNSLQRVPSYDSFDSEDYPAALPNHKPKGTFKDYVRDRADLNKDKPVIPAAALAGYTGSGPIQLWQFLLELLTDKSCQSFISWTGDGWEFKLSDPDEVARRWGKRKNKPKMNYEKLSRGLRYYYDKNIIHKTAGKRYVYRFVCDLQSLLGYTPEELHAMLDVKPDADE
UniProt Q96A65: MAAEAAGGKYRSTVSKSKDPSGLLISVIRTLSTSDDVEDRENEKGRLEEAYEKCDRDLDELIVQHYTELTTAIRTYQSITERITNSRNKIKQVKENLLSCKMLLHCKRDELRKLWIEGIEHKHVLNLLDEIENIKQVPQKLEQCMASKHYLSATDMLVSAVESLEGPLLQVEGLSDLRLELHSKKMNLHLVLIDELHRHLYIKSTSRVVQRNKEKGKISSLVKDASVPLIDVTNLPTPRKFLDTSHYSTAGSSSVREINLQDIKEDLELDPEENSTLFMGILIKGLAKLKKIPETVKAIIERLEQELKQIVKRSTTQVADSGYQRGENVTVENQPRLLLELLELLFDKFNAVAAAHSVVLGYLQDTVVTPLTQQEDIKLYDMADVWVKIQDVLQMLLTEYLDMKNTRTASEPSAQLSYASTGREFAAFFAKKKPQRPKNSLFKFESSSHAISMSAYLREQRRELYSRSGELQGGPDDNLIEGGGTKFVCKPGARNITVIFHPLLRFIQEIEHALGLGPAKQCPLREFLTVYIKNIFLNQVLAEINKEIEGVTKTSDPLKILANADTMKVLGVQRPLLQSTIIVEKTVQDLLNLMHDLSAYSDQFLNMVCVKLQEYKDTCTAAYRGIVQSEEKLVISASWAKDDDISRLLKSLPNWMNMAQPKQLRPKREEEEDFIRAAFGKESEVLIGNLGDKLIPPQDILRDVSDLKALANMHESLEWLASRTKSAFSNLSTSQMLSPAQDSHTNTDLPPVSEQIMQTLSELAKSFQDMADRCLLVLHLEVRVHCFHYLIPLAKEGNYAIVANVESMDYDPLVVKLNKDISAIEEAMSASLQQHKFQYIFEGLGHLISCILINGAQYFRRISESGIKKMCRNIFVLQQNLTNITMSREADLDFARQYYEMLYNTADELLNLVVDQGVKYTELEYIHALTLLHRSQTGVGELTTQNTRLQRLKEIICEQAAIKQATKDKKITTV
UniProt P16930: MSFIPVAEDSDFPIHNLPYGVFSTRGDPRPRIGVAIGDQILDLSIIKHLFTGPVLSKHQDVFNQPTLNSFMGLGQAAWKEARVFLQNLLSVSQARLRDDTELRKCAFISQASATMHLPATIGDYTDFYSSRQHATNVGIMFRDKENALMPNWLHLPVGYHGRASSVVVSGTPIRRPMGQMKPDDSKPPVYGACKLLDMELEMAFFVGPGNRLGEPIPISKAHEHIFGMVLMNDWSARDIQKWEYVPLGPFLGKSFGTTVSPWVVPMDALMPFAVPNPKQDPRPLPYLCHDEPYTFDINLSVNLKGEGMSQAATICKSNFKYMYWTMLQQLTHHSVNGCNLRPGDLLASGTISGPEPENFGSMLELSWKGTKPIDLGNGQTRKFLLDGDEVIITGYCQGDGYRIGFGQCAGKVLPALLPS
UniProt Q92889: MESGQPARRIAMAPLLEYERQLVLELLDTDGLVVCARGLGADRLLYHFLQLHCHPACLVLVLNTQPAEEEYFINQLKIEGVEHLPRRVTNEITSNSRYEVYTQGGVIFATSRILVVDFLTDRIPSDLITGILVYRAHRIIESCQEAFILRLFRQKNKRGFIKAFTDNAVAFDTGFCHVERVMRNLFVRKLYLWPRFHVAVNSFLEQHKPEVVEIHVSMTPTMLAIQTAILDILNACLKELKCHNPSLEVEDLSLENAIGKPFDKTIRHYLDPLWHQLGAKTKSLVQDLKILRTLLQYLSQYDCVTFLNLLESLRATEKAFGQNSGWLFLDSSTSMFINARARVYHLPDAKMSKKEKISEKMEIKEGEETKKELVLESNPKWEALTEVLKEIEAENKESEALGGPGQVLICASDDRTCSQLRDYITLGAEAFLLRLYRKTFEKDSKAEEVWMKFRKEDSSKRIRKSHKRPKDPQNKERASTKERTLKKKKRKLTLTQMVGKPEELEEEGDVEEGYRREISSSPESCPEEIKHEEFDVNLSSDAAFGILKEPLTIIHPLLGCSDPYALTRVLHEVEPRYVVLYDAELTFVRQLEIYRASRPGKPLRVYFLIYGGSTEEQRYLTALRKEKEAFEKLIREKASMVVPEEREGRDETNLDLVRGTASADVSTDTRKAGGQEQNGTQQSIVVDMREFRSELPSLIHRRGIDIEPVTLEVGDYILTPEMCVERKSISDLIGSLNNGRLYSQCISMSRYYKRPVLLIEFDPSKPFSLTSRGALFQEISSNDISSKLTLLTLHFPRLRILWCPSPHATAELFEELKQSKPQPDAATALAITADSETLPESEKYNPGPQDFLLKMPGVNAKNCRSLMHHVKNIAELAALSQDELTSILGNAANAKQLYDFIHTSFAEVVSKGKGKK
UniProt P10768: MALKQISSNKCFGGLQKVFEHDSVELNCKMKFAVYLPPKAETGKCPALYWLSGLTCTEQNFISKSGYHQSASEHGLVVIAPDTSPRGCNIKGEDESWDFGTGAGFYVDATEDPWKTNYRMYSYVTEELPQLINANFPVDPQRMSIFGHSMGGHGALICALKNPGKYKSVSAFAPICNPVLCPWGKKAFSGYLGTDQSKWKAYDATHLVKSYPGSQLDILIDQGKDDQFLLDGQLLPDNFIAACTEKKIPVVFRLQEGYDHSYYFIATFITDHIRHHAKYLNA
UniProt Q56NI9: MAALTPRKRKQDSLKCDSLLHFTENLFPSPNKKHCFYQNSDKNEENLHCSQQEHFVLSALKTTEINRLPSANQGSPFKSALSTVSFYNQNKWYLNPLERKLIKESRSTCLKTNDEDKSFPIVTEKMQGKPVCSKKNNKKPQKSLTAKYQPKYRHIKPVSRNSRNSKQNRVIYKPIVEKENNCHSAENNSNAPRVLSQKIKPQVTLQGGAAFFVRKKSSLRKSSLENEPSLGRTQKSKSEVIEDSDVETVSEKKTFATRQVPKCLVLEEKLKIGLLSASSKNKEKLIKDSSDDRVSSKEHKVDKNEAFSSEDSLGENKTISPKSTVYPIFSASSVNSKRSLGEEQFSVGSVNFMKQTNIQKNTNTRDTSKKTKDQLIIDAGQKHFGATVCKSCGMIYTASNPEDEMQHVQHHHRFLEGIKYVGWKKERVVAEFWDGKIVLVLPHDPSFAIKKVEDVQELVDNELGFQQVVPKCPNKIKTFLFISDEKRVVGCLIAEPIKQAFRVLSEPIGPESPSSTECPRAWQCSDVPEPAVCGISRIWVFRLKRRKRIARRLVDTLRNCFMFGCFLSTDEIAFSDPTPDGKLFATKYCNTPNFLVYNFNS
UniProt P84090, whole entry, looked up: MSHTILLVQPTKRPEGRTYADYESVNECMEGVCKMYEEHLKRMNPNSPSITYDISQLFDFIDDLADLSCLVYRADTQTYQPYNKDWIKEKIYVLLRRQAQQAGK
UniProt Q15910, whole entry, looked up: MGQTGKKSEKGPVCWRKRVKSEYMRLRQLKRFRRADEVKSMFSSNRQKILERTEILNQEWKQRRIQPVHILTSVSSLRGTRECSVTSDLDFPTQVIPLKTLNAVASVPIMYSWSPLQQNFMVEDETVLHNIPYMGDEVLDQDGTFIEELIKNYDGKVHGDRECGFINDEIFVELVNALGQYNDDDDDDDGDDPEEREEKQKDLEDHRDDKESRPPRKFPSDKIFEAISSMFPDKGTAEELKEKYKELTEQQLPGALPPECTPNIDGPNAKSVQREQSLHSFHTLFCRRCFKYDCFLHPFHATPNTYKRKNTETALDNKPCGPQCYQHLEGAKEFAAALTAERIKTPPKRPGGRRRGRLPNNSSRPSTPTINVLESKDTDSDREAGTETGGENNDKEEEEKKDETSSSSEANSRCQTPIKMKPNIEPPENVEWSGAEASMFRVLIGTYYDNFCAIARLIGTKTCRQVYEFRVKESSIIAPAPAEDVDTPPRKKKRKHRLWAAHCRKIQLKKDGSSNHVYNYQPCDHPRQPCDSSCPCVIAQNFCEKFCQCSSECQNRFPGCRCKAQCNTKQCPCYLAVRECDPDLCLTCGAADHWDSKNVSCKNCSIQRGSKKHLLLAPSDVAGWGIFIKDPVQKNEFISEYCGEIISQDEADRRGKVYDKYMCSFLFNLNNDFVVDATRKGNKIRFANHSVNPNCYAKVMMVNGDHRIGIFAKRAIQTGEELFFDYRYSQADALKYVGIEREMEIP
UniProt Q9NQT5, whole entry, looked up: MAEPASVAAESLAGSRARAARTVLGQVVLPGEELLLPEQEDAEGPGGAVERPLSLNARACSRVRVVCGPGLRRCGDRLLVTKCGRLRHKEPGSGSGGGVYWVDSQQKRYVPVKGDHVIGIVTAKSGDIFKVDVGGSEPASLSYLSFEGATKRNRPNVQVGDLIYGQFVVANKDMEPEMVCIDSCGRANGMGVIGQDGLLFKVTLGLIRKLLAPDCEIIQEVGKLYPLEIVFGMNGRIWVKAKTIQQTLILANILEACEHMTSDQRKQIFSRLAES

Each target was assayed with Cc1cc(ccc1-c1ccccc1)C(=O)N1CCCN(CC1)C(=O)CCl [compound 10] (assay: probe-labelled cysteine peptide fold change vs DMSO (competition) (log2 fold change); higher = less target engagement (more negative = stronger competition)). Settings: 10 µM; THP-1; incubation time: 4 h.
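Also: competitive profiling in live THP-1 cells: cysteine peptides tagged with an iodoacetamide desthiobiotin (IA-DTB) probe, intensity after compound treatment relative to DMSO-treated cells.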

Row | Target | probe-labelled cysteine peptide fold change
1 | ERO1A_Q96HE7_104_DCAVKPCQSDEVPDGIK (UniProt Q96HE7) | -0.198
2 | EXOSC8_Q96B26_89_GYVVPNVDLPPLCSSR (UniProt Q96B26) | -0.0137
3 | ETFDH_Q16134_589_LQINAQNCVHCK (UniProt Q16134) | 0.102
4 | FAM120B_Q96EK7_380_QEVPMCSDPEPR (UniProt Q96EK7) | -0.331
5 | FAM122A_Q96E09_193_SQSPINCIRPSVLGPLK (UniProt Q96E09) | -0.132
6 | FAM102B_Q5T8I3_53_EVVQANCVR (UniProt Q5T8I3) | -0.0937
7 | FAM120B_Q96EK7_499_QEIMCTGHESK (UniProt Q96EK7) | -0.283
8 | FAM102B_Q5T8I3_201_SASVPDELGACGHSR (UniProt Q5T8I3) | -0.256
9 | ETS1_P14921_31_VDLELFPSPDMECADVPLLTPSSK (UniProt P14921) | 0.255
10 | EXOC4_Q96A65_957_EIICEQAAIK (UniProt Q96A65) | -0.297
11 | FAM129A_Q9BZQ8_891_IHECQWVVEDAPNPDVLLSHK (UniProt Q9BZQ8) | -0.215
12 | FAM111B_Q6SJ93_590_IDGCTVIPLNER (UniProt Q6SJ93) | -0.0515
13 | FAAP100_Q0VG06_309+311_TEPQAAEAAENFLPDEDVHCDCLVAFGHHGR (UniProt Q0VG06) | -0.158
14 | EXOSC10_Q01780_327_SFLGLTCLMQISTR (UniProt Q01780) | 0.419
15 | EXOSC1_Q9Y3B2_40_HGYIFSSLAGCLMK (UniProt Q9Y3B2) | 0.118
16 | ETHE1_O95571_80_LLYAVNTHCHADHITGSGLLR (UniProt O95571) | -0.0738
17 | EXOSC9_Q06265_46_ISFGTDYGCCIVELGK (UniProt Q06265) | 0.118
18 | FAM120B_Q96EK7_356_QEVPMCTGPESR (UniProt Q96EK7) | -0.475
19 | FAH_P16930_193_RPMGQMKPDDSKPPVYGACK (UniProt P16930) | 0.00353
20 | ERMP1_Q7Z2K6_204+222_DGAQHAVLANCHFDSVANSPGASDDAVSCSVMLEVLR (UniProt Q7Z2K6) | -0.0802

Row | Target | probe-labelled cysteine peptide fold change
21 | ERCC4_Q92889_803_ILWCPSPHATAELFEELK (UniProt Q92889) | -0.169
22 | ESYT2_A0FGR8_210_HMWPFICQFIEK (UniProt A0FGR8) | -0.171
23 | EXOSC9_Q06265_232_HREICTIQSSGGIMLLK (UniProt Q06265) | -0.0954
24 | ERP44_Q9BS26_189_VANILHDDCAFLSAFGDVSKPER (UniProt Q9BS26) | -0.0221
25 | F2_P00734_129_SGIECQLWR (UniProt P00734) | -0.529
26 | ETHE1_O95571_34_QMFEPVSCTFTYLLGDRESR (UniProt O95571) | -0.207
27 | ERI3_O43414_258_VMLPGQCQYLGLPVADYFK (UniProt O43414) | -0.0545
28 | EXOC1_Q9NV70_837_HLCEEENLLQVVWHSMQDEFIR (UniProt Q9NV70) | 0.321
29 | ESD_P10768_176+181_SVSAFAPICNPVLCPWGK (UniProt P10768) | -0.00346
30 | ESD_P10768_45+56_CPALYWLSGLTCTEQNFISK (UniProt P10768) | 0.119
31 | EXOSC1_Q9Y3B2_15_LCNLEEGSPGSGTYTR (UniProt Q9Y3B2) | 0.107
32 | ESCO2_Q56NI9_132_MQGKPVCSK (UniProt Q56NI9) | 0.0759
33 | ERH_P84090_28+33_TYADYESVNECMEGVCK (UniProt P84090) | 0.00625
34 | FAM129A_Q9BZQ8_177_HGYFCFHEAADQKR (UniProt Q9BZQ8) | -0.0348
35 | EZH2_Q15910_588_ECDPDLCLTCGAADHWDSK (UniProt Q15910) | -0.0494
36 | ERP44_Q9BS26_318_TPADCPVIAIDSFR (UniProt Q9BS26) | -0.00107
37 | ESD_P10768_11_CFGGLQK (UniProt P10768) | 0.0299
38 | ETV6_P41212_8_SETPAQCSIK (UniProt P41212) | -0.338
39 | ESD_P10768_181_SVSAFAPICNPVLCPWGK (UniProt P10768) | -0.0639
40 | EXOSC3_Q9NQT5_257_TIQQTLILANILEACEHMTSDQR (UniProt Q9NQT5) | 0.196

Same assay, conditions: 50 µM; THP-1; incubation time: 4 h

Row | Target | probe-labelled cysteine peptide fold change
41 | ERO1A_Q96HE7_104_DCAVKPCQSDEVPDGIK (UniProt Q96HE7) | 0.0779
42 | EXOSC8_Q96B26_89_GYVVPNVDLPPLCSSR (UniProt Q96B26) | -0.11
43 | ETFDH_Q16134_589_LQINAQNCVHCK (UniProt Q16134) | 0.109
44 | FAM120B_Q96EK7_380_QEVPMCSDPEPR (UniProt Q96EK7) | -0.128
45 | FAM122A_Q96E09_193_SQSPINCIRPSVLGPLK (UniProt Q96E09) | -0.161
46 | FAM102B_Q5T8I3_53_EVVQANCVR (UniProt Q5T8I3) | 0.333
47 | FAM120B_Q96EK7_499_QEIMCTGHESK (UniProt Q96EK7) | -0.296
48 | FAM102B_Q5T8I3_201_SASVPDELGACGHSR (UniProt Q5T8I3) | -0.248
49 | ETS1_P14921_31_VDLELFPSPDMECADVPLLTPSSK (UniProt P14921) | -0.0133
50 | EXOC4_Q96A65_957_EIICEQAAIK (UniProt Q96A65) | 0.000253
51 | FAM129A_Q9BZQ8_891_IHECQWVVEDAPNPDVLLSHK (UniProt Q9BZQ8) | -0.218
52 | FAM111B_Q6SJ93_590_IDGCTVIPLNER (UniProt Q6SJ93) | 0.0403
53 | FAAP100_Q0VG06_309+311_TEPQAAEAAENFLPDEDVHCDCLVAFGHHGR (UniProt Q0VG06) | -0.399
54 | EXOSC10_Q01780_327_SFLGLTCLMQISTR (UniProt Q01780) | 0.333
55 | EXOSC1_Q9Y3B2_40_HGYIFSSLAGCLMK (UniProt Q9Y3B2) | -0.0583
56 | ETHE1_O95571_80_LLYAVNTHCHADHITGSGLLR (UniProt O95571) | -0.00282
57 | EXOSC9_Q06265_46_ISFGTDYGCCIVELGK (UniProt Q06265) | -0.0998
58 | FAM120B_Q96EK7_356_QEVPMCTGPESR (UniProt Q96EK7) | -0.317
59 | FAH_P16930_193_RPMGQMKPDDSKPPVYGACK (UniProt P16930) | -0.318
60 | ERMP1_Q7Z2K6_204+222_DGAQHAVLANCHFDSVANSPGASDDAVSCSVMLEVLR (UniProt Q7Z2K6) | 0.128

Row | Target | probe-labelled cysteine peptide fold change
61 | ERCC4_Q92889_803_ILWCPSPHATAELFEELK (UniProt Q92889) | 0.181
62 | ESYT2_A0FGR8_210_HMWPFICQFIEK (UniProt A0FGR8) | 0.379
63 | EXOSC9_Q06265_232_HREICTIQSSGGIMLLK (UniProt Q06265) | -0.14
64 | ERP44_Q9BS26_189_VANILHDDCAFLSAFGDVSKPER (UniProt Q9BS26) | 0.278
65 | F2_P00734_129_SGIECQLWR (UniProt P00734) | -0.507
66 | ETHE1_O95571_34_QMFEPVSCTFTYLLGDRESR (UniProt O95571) | -0.453
67 | ERI3_O43414_258_VMLPGQCQYLGLPVADYFK (UniProt O43414) | 0.225
68 | EXOC1_Q9NV70_837_HLCEEENLLQVVWHSMQDEFIR (UniProt Q9NV70) | 0.405
69 | ESD_P10768_176+181_SVSAFAPICNPVLCPWGK (UniProt P10768) | -0.142
70 | ESD_P10768_45+56_CPALYWLSGLTCTEQNFISK (UniProt P10768) | -0.309
71 | EXOSC1_Q9Y3B2_15_LCNLEEGSPGSGTYTR (UniProt Q9Y3B2) | -0.0608
72 | ESCO2_Q56NI9_132_MQGKPVCSK (UniProt Q56NI9) | 0.0284
73 | ERH_P84090_28+33_TYADYESVNECMEGVCK (UniProt P84090) | -0.232
74 | FAM129A_Q9BZQ8_177_HGYFCFHEAADQKR (UniProt Q9BZQ8) | -0.256
75 | EZH2_Q15910_588_ECDPDLCLTCGAADHWDSK (UniProt Q15910) | 0.107
76 | ERP44_Q9BS26_318_TPADCPVIAIDSFR (UniProt Q9BS26) | 0.308
77 | ESD_P10768_11_CFGGLQK (UniProt P10768) | -0.116
78 | ETV6_P41212_8_SETPAQCSIK (UniProt P41212) | -0.304
79 | ESD_P10768_181_SVSAFAPICNPVLCPWGK (UniProt P10768) | -0.0992
80 | EXOSC3_Q9NQT5_257_TIQQTLILANILEACEHMTSDQR (UniProt Q9NQT5) | 0.248
